Data as given in publication PMC4338625.
The exact form of at least one protein or probe is not confirmed. At least one verdict was read from the data and is not stated in words by the source. For part of these data: Where a protein sequence is shown, tags need not be part of it.

Chains of the proteins cited; added tags and fusions are not shown. Lines headed by an entry give the natural chain unless they say otherwise; changes in a name come on top.
UniProt P41161: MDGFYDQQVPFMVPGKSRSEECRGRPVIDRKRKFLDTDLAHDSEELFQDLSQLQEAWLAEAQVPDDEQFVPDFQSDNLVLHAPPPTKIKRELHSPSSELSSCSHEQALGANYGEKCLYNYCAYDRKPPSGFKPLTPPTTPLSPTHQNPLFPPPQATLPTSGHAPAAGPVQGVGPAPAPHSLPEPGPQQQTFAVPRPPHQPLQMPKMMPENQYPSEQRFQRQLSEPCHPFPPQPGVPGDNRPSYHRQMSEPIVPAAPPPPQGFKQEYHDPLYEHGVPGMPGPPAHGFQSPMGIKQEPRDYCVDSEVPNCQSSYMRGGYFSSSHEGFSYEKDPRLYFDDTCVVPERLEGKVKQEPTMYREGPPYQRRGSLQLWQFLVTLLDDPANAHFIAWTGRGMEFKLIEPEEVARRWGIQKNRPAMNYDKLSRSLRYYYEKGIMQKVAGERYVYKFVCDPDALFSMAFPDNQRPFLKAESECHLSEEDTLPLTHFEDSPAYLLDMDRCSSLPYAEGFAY

What was measured:
Test in all cases: EMSA
ELF1 (human) = target: T1, ELF1 (human) (UniProt P32519); settings: EMSA conditions not printed (as previously described, ref 5); protein stock in 10 mM Tris pH 7.9, 0.5 mM EDTA, 200 mM KCl, 1 mM DTT, 10% glycerol; recombinant protein; residues 1-619; protein details: N-term 6xHis
T1 sequence (looked up): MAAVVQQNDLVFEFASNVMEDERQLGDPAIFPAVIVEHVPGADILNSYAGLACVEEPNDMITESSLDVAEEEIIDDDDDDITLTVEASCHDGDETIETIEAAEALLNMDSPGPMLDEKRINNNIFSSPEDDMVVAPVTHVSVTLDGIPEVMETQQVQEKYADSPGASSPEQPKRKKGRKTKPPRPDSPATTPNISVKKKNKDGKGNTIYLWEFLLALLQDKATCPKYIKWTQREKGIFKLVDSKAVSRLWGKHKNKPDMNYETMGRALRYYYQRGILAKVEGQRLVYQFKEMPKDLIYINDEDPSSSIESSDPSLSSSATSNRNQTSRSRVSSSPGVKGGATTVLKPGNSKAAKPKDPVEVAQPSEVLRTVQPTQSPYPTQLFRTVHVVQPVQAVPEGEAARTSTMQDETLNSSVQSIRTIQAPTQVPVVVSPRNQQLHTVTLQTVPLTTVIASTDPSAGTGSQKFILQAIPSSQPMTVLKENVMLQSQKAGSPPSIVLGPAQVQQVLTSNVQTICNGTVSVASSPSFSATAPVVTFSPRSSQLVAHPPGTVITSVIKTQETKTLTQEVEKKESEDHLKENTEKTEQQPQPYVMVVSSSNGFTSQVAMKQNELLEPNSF

ERF (human) = target: T2, ERF (human) (UniProt P50548); settings: EMSA conditions not printed (as previously described, ref 5); protein stock in 10 mM Tris pH 7.9, 0.5 mM EDTA, 200 mM KCl, 1 mM DTT, 10% glycerol; recombinant protein; residues 1-548; protein details: N-term 6xHis
T2 sequence (looked up): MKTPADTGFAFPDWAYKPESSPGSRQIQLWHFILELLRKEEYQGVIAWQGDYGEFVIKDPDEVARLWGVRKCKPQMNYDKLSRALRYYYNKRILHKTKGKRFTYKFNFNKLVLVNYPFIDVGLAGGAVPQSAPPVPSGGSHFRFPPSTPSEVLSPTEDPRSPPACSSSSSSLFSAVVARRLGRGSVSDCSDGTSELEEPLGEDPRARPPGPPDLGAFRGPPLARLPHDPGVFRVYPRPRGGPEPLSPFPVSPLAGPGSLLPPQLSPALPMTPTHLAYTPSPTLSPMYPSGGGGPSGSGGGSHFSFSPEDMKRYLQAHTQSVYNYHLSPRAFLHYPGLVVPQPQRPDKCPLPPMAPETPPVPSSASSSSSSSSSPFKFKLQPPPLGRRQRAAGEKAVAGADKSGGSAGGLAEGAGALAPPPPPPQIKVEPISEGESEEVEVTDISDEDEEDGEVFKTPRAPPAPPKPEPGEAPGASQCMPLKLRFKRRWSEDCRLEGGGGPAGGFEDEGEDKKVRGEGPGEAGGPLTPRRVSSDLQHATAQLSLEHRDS

ETS2 (human) = target: T3, ETS2 (human) (UniProt P15036); settings: EMSA conditions not printed (as previously described, ref 5); protein stock in 10 mM Tris pH 7.9, 0.5 mM EDTA, 200 mM KCl, 1 mM DTT, 10% glycerol; recombinant protein; residues 1-469; protein details: N-term 6xHis
T3 sequence (looked up): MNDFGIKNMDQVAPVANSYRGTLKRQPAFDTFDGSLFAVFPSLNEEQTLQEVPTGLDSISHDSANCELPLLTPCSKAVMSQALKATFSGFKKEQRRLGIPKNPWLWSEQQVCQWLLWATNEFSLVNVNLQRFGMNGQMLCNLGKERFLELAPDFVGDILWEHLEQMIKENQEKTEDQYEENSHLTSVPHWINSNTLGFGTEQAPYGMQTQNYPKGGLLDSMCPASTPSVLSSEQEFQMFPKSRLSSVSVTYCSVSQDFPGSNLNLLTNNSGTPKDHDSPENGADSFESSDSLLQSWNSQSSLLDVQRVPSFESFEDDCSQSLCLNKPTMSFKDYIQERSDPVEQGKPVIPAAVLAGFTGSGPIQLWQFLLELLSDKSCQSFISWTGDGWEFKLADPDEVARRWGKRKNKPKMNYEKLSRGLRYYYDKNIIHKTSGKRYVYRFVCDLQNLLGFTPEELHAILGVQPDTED

ETV5 (human) = ETV5 (human) (UniProt P41161); settings: EMSA conditions not printed (as previously described, ref 5); protein stock in 10 mM Tris pH 7.9, 0.5 mM EDTA, 200 mM KCl, 1 mM DTT, 10% glycerol; recombinant protein; residues 1-510; protein details: N-term 6xHis
FEV (human) = target: T4, FEV (human) (UniProt Q99581); settings: EMSA conditions not printed (as previously described, ref 5); protein stock in 10 mM Tris pH 7.9, 0.5 mM EDTA, 200 mM KCl, 1 mM DTT, 10% glycerol; recombinant protein; residues 1-238; protein details: N-term 6xHis
T4 sequence (looked up): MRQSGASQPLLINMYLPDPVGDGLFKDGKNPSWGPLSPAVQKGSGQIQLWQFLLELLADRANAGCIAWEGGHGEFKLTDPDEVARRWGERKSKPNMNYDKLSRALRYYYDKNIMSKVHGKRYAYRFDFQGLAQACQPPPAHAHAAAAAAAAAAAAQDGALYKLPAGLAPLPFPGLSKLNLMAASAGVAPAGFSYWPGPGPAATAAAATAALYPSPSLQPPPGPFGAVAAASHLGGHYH

FLI1 (human) = target: T5, FLI1 (human) (UniProt Q01543); settings: EMSA conditions not printed (as previously described, ref 5); protein stock in 10 mM Tris pH 7.9, 0.5 mM EDTA, 200 mM KCl, 1 mM DTT, 10% glycerol; recombinant protein; residues 1-452; protein details: N-term 6xHis
T5 sequence (looked up): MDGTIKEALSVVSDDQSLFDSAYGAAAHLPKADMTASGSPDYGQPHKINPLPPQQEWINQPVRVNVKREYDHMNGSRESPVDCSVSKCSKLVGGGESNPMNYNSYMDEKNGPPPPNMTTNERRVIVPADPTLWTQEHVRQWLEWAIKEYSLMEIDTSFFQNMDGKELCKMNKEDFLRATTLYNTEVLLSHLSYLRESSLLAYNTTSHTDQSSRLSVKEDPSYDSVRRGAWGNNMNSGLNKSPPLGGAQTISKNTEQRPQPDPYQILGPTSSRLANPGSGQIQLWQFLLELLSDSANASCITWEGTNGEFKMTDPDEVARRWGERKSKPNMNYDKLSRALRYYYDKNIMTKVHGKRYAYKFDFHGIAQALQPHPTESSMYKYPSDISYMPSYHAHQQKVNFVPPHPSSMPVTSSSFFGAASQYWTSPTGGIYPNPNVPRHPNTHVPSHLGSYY

Measured: binding result

GCCACGGCCCAGGAAGTGACTCACCCACCCTGATG (double strand) [ETS consensus EMSA probe]
binds: ELF1 (human) | ERF (human) | ETS2 (human) | ETV5 (human) | FEV (human) | FLI1 (human)
